Laboratory results from US20250332199A1.
No constants are given. Whether binding was seen depends on the method and setting. Some binding calls cover weakened binding; strength is not graded here.

Protein sequences, listed by entry. Tags and fused reporters are not part of them. Residues count along the entry.
UniProt Q96RJ3, residues 1-71: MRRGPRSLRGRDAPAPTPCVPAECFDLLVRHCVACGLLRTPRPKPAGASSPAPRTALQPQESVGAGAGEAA

Target: BAFF-R-CAR
Test: flow cytometry of Zip-sorted T cells; by paragraph 330 staining with 1 ug hBAFF-R hFc followed by anti-hFc antibody

For “hBAFF-R hFc (from UniProt Q96RJ3) (Fc fusion)”, which binding is on record?
The binding was “binds”.
